In publication doi:10.1101/2024.12.06.627168:
Results are given in words; binding and its absence hold for the method and conditions named. Binding seen in cells or lysates may run through a third protein. Some results given as binding are weak or reduced against the parent protein; the word gives no strength.

By UniProt entry, the sequences of proteins in these tests, tags left out.
UniProt P35637: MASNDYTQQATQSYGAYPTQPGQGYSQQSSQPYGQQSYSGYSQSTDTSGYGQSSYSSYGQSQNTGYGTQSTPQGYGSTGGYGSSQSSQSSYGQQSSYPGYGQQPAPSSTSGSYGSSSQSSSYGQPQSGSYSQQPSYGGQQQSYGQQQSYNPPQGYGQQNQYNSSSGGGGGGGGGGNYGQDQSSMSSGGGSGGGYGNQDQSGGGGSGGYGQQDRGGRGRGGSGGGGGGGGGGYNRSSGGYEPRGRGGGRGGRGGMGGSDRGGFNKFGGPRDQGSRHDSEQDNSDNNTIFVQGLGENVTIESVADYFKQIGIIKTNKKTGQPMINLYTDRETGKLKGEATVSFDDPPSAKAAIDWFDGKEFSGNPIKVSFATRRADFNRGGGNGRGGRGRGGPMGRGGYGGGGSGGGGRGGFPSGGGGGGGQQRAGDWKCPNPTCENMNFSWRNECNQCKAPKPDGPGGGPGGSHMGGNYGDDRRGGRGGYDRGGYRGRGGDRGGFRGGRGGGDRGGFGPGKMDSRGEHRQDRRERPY
UniProt P07910: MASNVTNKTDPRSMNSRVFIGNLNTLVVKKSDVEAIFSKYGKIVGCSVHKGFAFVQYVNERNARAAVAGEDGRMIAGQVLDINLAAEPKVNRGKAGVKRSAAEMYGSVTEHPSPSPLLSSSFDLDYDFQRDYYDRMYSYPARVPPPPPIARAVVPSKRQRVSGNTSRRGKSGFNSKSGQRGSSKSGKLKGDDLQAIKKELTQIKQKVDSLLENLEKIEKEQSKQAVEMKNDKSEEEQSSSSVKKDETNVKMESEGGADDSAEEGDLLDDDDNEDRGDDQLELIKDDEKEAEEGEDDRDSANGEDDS
UniProt P01106: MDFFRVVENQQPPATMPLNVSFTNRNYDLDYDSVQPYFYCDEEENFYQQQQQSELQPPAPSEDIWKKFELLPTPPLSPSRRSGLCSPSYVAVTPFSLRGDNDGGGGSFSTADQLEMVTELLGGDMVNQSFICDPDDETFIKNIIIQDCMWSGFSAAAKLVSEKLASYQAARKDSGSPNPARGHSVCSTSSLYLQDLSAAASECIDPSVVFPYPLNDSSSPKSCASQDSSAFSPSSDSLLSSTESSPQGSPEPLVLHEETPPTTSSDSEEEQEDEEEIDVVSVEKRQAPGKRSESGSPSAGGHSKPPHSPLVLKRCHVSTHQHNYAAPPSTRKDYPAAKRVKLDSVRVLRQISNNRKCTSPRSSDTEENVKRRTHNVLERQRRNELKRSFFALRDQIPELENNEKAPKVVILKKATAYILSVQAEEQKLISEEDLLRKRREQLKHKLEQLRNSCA
UniProt Q86U44: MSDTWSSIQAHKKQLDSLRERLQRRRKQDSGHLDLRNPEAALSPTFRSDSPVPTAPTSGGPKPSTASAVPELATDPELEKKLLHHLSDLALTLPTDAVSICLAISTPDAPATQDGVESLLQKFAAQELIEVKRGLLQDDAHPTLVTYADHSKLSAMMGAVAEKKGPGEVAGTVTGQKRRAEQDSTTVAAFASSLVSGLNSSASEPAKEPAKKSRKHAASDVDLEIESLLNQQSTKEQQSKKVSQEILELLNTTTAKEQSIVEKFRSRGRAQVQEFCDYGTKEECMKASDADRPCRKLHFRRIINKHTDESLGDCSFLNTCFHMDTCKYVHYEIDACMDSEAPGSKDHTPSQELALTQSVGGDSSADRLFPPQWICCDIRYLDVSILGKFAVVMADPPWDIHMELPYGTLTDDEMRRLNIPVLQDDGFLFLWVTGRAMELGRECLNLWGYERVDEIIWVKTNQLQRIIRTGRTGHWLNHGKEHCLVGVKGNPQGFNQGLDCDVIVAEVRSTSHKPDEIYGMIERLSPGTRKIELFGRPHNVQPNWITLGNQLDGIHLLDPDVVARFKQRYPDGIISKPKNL

Assays:
Assay in all cases: co-IP
[1] = target: FUS (human (endogenous in U2OS)) (UniProt P35637)
[2] = target: T1, RBM15 (human (endogenous in U2OS)) (UniProt Q96T37)
T1 sequence: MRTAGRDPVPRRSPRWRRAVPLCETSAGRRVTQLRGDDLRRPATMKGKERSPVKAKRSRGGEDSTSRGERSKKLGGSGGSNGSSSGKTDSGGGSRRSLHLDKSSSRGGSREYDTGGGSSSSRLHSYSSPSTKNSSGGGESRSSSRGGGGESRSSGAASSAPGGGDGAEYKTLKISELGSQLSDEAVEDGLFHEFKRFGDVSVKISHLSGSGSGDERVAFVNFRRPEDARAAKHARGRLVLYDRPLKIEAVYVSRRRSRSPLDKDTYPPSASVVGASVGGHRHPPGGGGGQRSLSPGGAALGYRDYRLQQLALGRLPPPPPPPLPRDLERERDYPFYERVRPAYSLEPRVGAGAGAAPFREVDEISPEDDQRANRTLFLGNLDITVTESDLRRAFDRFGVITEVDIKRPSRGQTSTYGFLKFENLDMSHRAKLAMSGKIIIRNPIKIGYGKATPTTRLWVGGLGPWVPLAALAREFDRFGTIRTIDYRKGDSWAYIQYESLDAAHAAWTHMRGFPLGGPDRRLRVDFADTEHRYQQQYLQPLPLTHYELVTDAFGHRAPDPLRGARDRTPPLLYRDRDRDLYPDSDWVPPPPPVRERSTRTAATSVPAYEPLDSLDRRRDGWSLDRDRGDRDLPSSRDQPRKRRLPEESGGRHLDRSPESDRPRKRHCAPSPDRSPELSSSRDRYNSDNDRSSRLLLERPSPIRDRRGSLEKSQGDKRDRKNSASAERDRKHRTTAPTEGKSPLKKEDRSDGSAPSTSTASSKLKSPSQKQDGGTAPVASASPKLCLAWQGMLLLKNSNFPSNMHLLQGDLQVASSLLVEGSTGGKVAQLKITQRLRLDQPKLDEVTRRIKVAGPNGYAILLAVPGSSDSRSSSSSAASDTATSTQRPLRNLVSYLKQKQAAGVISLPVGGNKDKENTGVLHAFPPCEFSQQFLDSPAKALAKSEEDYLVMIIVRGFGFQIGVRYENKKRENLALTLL

[3] = target: T2, ZCCHC8 (human (endogenous in U2OS)) (UniProt Q6NZY4)
T2 sequence: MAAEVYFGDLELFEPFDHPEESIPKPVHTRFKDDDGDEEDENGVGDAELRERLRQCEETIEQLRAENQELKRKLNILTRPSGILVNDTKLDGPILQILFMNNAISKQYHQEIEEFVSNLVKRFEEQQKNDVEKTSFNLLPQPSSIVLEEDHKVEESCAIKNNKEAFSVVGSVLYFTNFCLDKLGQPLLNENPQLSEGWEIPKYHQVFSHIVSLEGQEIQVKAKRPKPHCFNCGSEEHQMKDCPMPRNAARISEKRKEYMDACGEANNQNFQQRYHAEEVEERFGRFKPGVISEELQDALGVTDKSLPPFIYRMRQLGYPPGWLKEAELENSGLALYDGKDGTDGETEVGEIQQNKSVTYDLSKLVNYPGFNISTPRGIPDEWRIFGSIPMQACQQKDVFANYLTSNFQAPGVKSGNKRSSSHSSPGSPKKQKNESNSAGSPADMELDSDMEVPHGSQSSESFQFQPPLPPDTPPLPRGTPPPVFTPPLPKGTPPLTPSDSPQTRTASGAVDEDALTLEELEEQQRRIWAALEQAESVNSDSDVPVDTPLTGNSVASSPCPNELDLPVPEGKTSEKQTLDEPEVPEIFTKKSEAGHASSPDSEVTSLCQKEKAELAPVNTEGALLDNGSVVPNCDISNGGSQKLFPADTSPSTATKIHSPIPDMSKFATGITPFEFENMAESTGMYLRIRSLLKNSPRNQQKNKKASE

[4] = target: HNRNPC (human (endogenous in U2OS)) (UniProt P07910)
[5] = target: MYC (endogenous, in EtOH-treated control U2OS^MYC-Tet-On cells) (human (endogenous in U2OS)) (UniProt P01106)

binding [1]	binding [2]	binding [3]	binding [4]	binding [5]	Substance
binds	binds	binds	binds		MYC (in doxycycline-treated U2OS^MYC-Tet-On cells) (from UniProt P01106 1-454)
				binds	METTL3 (from UniProt Q86U44 1-580)
				binds	FUS (from UniProt P35637 1-526)
